Results as given in publication PMC10182610.
Results are given in words; binding and its absence hold for the method and conditions named. Binding seen in cells or lysates may run through a third protein. Some entries that bind do so weakly or less than the wild type.

Chains of the proteins cited; added tags and fusions are not shown. Lines headed by an entry give the natural chain unless they say otherwise; changes in a name come on top.
UniProt Q15386: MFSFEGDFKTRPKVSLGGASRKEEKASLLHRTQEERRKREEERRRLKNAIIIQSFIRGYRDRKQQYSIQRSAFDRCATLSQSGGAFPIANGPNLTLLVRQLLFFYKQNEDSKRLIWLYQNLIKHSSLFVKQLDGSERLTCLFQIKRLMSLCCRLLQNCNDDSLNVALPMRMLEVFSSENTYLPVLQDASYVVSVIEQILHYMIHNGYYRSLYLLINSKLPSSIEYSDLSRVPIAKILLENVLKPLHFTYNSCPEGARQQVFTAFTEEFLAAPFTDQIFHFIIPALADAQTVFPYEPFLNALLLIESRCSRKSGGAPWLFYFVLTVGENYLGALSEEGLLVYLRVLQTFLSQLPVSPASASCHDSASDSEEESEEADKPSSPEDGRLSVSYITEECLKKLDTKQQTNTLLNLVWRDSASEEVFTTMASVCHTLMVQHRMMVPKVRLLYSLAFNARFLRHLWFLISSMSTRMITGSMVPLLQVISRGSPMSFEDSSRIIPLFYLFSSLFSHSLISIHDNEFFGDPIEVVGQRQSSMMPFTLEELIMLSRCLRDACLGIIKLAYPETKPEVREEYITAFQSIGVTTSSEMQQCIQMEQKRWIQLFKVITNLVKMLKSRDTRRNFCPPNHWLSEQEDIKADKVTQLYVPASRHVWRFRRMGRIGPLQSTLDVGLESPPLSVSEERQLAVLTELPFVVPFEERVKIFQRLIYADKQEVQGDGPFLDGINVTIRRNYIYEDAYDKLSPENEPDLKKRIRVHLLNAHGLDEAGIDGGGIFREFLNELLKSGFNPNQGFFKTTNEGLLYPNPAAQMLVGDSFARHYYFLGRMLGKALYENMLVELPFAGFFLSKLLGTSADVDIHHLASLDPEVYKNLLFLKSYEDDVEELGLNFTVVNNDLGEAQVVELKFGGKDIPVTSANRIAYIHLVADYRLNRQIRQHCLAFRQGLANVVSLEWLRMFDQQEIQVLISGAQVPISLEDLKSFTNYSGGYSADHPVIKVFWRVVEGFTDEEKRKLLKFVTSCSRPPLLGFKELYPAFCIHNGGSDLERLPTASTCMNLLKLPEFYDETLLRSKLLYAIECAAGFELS

Biological target: ubiquitin protein ligase E3C (UBE3C) (human (endogenous in breast cancer cell lines)) (UniProt Q15386)
Experiment: co-IP; immunoprecipitation with anti-UBE3C from cell lysate, TP73 detected by Western blot; cells not named

B1: tumor protein p73 (TP73) (protein, UniProt O15350 1-636)
chain: MAQSTATSPDGGTTFEHLWSSLEPDSTYFDLPQSSRGNNEVVGGTDSSMDVFHLEGMTTSVMAQFNLLSSTMDQMSSRAASASPYTPEHAASVPTHSPYAQPSSTFDTMSPAPVIPSNTDYPGPHHFEVTFQQSSTAKSATWTYSPLLKKLYCQIAKTCPIQIKVSTPPPPGTAIRAMPVYKKAEHVTDVVKRCPNHELGRDFNEGQSAPASHLIRVEGNNLSQYVDDPVTGRQSVVVPYEPPQVGTEFTTILYNFMCNSSCVGGMNRRPILIIITLEMRDGQVLGRRSFEGRICACPGRDRKADEDHYREQQALNESSAKNGAASKRAFKQSPPAVPALGAGVKKRRHGDEDTYYLQVRGRENFEILMKLKESLELMELVPQPLVDSYRQQQQLLQRPSHLQPPSYGPVLSPMNKVHGGMNKLPSVNQLVGQPPPHSSAATPNLGPVGPGMLNNHGHAVPANGEMSSSHSAQSMVSGSHCTPPPPYHADPSLVSFLTGLGCPNCIEYFTSQGLQSIYHLQNLTIEDLGALKIPEQYRMTIWRGLQDLKQGHDYSTAQQLLRSSNAATISIGGSGELQRQRVMEAVHFRVRHTITIPNRGGPGGGPDEWADFGFDLPDCKARKQPIKEEFTEAEIH
binding: binds
